Data taken from article doi:10.1101/2021.12.22.473789.
No constants are given. Whether binding was seen depends on the method and setting. Binding seen in cells or lysates may run through a third protein. Some results given as binding are weak or reduced against the parent protein; the word gives no strength. For some assays here: Sequences can lack the tags named with a protein.

The chains behind the UniProt entries cited, without tags or fusion partners.
UniProt P10591: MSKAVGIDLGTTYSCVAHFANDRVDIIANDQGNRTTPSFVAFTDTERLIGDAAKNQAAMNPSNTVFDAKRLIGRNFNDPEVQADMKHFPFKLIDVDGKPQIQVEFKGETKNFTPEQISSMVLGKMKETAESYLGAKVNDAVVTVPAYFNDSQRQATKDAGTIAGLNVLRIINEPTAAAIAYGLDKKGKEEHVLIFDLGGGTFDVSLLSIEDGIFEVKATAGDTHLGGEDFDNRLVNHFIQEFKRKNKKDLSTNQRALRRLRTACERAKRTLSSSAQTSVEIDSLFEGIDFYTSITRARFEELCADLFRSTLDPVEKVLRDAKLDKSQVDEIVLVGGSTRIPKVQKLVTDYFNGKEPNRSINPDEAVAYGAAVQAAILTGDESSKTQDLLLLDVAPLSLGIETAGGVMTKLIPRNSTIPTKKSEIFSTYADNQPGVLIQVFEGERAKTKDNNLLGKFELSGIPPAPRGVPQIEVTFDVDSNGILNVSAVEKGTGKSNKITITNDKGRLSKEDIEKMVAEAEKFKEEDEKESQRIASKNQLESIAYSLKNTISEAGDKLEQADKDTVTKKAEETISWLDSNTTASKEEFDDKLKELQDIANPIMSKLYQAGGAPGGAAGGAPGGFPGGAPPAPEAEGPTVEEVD
UniProt P19812: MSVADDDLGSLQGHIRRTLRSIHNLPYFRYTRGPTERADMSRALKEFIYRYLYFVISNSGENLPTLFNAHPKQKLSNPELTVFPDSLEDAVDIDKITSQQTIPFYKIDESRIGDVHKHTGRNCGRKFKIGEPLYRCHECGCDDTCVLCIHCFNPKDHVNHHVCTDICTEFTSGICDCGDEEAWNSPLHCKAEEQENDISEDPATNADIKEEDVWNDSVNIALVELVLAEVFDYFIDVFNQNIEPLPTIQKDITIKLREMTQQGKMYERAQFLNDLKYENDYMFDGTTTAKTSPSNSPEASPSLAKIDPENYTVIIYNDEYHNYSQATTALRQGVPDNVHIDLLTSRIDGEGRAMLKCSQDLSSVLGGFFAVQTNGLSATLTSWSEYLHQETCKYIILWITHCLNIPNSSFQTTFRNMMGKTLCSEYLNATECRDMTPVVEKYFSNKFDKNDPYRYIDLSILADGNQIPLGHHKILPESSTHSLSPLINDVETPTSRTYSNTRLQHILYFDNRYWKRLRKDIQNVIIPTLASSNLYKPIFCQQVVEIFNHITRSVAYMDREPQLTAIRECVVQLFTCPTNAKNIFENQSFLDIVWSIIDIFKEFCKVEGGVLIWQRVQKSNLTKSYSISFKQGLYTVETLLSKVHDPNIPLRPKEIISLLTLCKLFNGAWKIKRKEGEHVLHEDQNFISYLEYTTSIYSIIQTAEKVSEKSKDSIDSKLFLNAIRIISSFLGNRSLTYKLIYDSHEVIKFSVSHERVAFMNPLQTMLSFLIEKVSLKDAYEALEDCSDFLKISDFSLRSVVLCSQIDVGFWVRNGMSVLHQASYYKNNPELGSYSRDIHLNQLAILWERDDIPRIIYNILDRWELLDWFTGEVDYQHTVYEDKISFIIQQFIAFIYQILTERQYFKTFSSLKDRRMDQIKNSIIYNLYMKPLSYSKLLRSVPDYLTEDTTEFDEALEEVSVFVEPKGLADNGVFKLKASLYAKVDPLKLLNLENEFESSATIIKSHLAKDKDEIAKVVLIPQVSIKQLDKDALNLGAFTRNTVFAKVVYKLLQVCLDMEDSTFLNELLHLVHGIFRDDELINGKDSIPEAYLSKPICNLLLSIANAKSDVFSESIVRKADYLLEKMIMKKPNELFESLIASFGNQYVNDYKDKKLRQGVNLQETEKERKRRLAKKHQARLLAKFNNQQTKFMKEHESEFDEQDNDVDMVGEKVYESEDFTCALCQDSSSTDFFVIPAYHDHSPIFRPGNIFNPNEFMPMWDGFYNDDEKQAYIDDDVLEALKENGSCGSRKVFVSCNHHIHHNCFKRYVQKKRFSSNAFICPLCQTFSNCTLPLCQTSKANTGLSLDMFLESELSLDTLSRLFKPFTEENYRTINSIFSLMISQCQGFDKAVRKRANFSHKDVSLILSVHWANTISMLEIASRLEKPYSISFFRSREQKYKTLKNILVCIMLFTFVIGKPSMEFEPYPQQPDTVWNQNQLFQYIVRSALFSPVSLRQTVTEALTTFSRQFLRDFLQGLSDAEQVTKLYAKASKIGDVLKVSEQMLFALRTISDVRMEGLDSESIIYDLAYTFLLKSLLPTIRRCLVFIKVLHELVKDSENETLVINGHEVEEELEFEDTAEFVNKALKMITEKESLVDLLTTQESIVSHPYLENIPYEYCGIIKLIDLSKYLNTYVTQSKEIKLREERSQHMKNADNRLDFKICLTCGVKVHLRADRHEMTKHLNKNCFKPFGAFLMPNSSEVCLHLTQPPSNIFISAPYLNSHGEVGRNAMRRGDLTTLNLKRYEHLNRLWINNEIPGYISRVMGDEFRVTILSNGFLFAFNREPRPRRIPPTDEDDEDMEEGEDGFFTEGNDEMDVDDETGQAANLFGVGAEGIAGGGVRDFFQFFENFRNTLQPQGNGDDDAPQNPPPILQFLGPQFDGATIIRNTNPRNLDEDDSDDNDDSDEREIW

Columns and labels:
[1] = target: myc-tagged yeast Hsp70 homologue Ssa1 (S. cerevisiae) (UniProt P10591); test: co-IP
[2] = target: T1, GFP-1xRLLL fusion (GFP fused to one copy of the 22-residue APPY peptide) (chicken); test: co-IP
T1 sequence: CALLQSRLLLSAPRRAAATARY

| binding [1] | binding [2] | Substance |
| --- | --- | --- |
| binds |  | Ubr1-HA (from UniProt P19812 1-1950) (enzyme) |
|  | binds | myc-tagged yeast Hsp70 homologue Ssa1 (from UniProt P10591 1-642) |
